Results are given in words; binding and its absence hold for the method and conditions named. In cells and extracts the contact can be indirect. Some results given as binding are weak or reduced against the parent protein; the word gives no strength. Tags and fused reporters may be left off the sequences shown.
Biological target: 1myc-Parkin (52 kD) (UniProt O60260)
Assay: co-IP; COS-7 cells co-transfected with 1myc-Parkin and AU5-ARTS or Flag-Sept4_i1; lysates subjected to IP with anti-ARTS, anti-myc or anti-Parkin antibody, then Western blot; IP lysis buffer 150 mM NaCl, 50 mM Tris-HCl pH 8, 1% NP-40, 0.5% Na-deoxycholate

Protein sequences, listed by entry. Tags and fused reporters are not part of them.
UniProt O60260: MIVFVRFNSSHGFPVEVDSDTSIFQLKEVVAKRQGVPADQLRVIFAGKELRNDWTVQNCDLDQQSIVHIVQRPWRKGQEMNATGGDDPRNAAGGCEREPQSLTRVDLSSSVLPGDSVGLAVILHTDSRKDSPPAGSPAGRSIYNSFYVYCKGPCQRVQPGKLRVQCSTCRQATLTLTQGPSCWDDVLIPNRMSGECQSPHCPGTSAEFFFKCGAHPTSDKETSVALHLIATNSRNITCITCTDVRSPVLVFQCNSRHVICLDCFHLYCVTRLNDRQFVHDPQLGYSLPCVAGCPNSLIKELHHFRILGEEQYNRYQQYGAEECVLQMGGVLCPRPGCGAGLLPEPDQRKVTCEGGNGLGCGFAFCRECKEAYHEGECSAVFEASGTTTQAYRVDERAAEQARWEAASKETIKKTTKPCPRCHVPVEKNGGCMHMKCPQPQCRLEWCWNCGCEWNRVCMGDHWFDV

binding: binds
B1: Flag-Sept4_i1 (protein, UniProt O43236-1 1-478)
chain: MDRSLGWQGNSVPEDRTEAGIKRFLEDTTDDGELSKFVKDFSGNASCHPPEAKTWASRPQVPEPRPQAPDLYDDDLEFRPPSRPQSSDNQQYFCAPAPLSPSARPRSPWGKLDPYDSSEDDKEYVGFATLPNQVHRKSVKKGFDFTLMVAGESGLGKSTLVNSLFLTDLYRDRKLLGAEERIMQTVEITKHAVDIEEKGVRLRLTIVDTPGFGDAVNNTECWKPVAEYIDQQFEQYFRDESGLNRKNIQDNRVHCCLYFISPFGHGLRPLDVEFMKALHQRVNIVPILAKADTLTPPEVDHKKRKIREEIEHFGIKIYQFPDCDSDEDEDFKLQDQALKESIPFAVIGSNTVVEARGRRVRGRLYPWGIVEVENPGHCDFVKLRTMLVRTHMQDLKDVTRETHYENYRAQCIQSMTRLVVKERNRNKLTRESGTDFPIPAVPPGTDPETEKLIREKDEELRRMQEMLHKIQKQMKENY

— PMC3392246
